Experimental data: PubChem BioAssay AID1259286 (Sanger Institute, 2017)
Shown is a random part of 794 reagents tested. 17 of all reagents (2.1%) were called active. 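Calls use knock-down alone only; synergy above 0.15 marked separately; viability seems capped at control level; exposure time not given.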 Entries without a mark were called inactive. Further read-outs or replicates are left out here. Not given: the amount of reagent, the time to read-out.

Screen: 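Kinome knock-downs lethal on their own or synergistic with anchor drugs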 (primary screen)
Cell system: NCI-H630 human colorectal cancer cells
Reagents: siRNA pool against human genes
Challenge: anchor drugs BYL719 at 1 µM, cetuximab at 5 µg/ml or trametinib at 10 nM, or DMSO vehicle alone; exposure time not given
Detection: 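Viability relative to non-targeting pool wells, averaged over replicates, with robust z-score for knock-down alone and a synergy score for each anchor drug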
Direction: viability z-score, knock-down alone: higher = more viable cells, weaker knock-down effect; viability vs control, knock-down alone: higher = more viable cells
Call rule: 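Essential call: robust z-score of viability with siRNA alone lower than -3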
Calls: active = essential when knocked down alone; inactive = not essential alone

With RPS6KA6, what was measured?
viability z-score, knock-down alone: 0.464; viability vs control, knock-down alone (fraction of control): 1

For TSSK4, how do the results read?
viability z-score, knock-down alone: 0.464; viability vs control, knock-down alone (fraction of control): 1

With PKIA, what does the deposit list?
viability z-score, knock-down alone: 0.464; viability vs control, knock-down alone (fraction of control): 1

For PRKAR1B, what was measured?
viability z-score, knock-down alone: 0.256; viability vs control, knock-down alone (fraction of control): 0.992

With LYN, what was measured?
viability z-score, knock-down alone: -1.07; viability vs control, knock-down alone (fraction of control): 0.942

What did the screen give for CAMK2A?
viability z-score, knock-down alone: -0.523; viability vs control, knock-down alone (fraction of control): 0.963

For RIOK2, what does the deposit list?
viability z-score, knock-down alone: 0.464; viability vs control, knock-down alone (fraction of control): 1

What is on record for PIK3C2B?
viability z-score, knock-down alone: 0.464; viability vs control, knock-down alone (fraction of control): 1

Which result is listed for KCNH2?
viability z-score, knock-down alone: 0.419; viability vs control, knock-down alone (fraction of control): 0.998

Which result is listed for FN3KRP?
viability z-score, knock-down alone: -0.286; viability vs control, knock-down alone (fraction of control): 0.972

What is on record for PKLR?
viability z-score, knock-down alone: 0.464; viability vs control, knock-down alone (fraction of control): 1

What is on record for IDH2?
viability z-score, knock-down alone: 0.464; viability vs control, knock-down alone (fraction of control): 1

With CSK, what does the deposit list?
viability z-score, knock-down alone: 0.464; viability vs control, knock-down alone (fraction of control): 1

What did the screen give for PRKY?
viability z-score, knock-down alone: -1.18; viability vs control, knock-down alone (fraction of control): 0.938

Which result is listed for DLG3?
viability z-score, knock-down alone: 0.464; viability vs control, knock-down alone (fraction of control): 1

Which result is listed for GSK3A?
viability z-score, knock-down alone: -1.4; viability vs control, knock-down alone (fraction of control): 0.93

With BMP2K, what was measured?
viability z-score, knock-down alone: -1.44; viability vs control, knock-down alone (fraction of control): 0.928

What is on record for MPP2?
viability z-score, knock-down alone: 0.162; viability vs control, knock-down alone (fraction of control): 0.989

Which result is listed for CAMKV?
viability z-score, knock-down alone: 0.464; viability vs control, knock-down alone (fraction of control): 1

For TJP2, what was measured?
viability z-score, knock-down alone: 0.464; viability vs control, knock-down alone (fraction of control): 1

For PTK2, what does the deposit list?
viability z-score, knock-down alone: 0.464; viability vs control, knock-down alone (fraction of control): 1

With PDK3, what does the deposit list?
viability z-score, knock-down alone: 0.464; viability vs control, knock-down alone (fraction of control): 1

What is on record for CIT?
viability z-score, knock-down alone: 0.464; viability vs control, knock-down alone (fraction of control): 1

For ADCK5, what was measured?
viability z-score, knock-down alone: 0.464; viability vs control, knock-down alone (fraction of control): 1

With HK3, what was measured?
viability z-score, knock-down alone: 0.464; viability vs control, knock-down alone (fraction of control): 1

For RPS6KC1, how do the results read?
viability z-score, knock-down alone: 0.464; viability vs control, knock-down alone (fraction of control): 1

With EPHB3, what was measured?
viability z-score, knock-down alone: -0.425; viability vs control, knock-down alone (fraction of control): 0.966

For CDKL5, what was measured?
viability z-score, knock-down alone: 0.464; viability vs control, knock-down alone (fraction of control): 1

Just “viability vs control, knock-down alone (fraction of control)”, for 5 of the entries above:
PRKAR1B: 0.992
LYN: 0.942
CAMK2A: 0.963
RIOK2: 1
PIK3C2B: 1
